Reference: US20180002444A1 (ROCKEFELLER UNIVERSITY, published 2018)
These are yes or no findings as the source states them, for the method shown. Some results given as binding are weak or reduced against the parent protein; the word gives no strength.

B1: antibody M19 (antibody, V domains shown)
VH: EVQLEESGPDLKKPGETVKISCKASNYTFTDYSMHWVKQAPGKGLKWVGWINTDTGEPTYADDFKGRFAFSLETSASTAYLQINNLKNEDTATYFCARWFGAMDYWGQGTSVTVSS
VL: DIVITQSHKFMSTSVGDRVSITCKASQDVTNVVAWYQQKPGQSPKLLIYSASYRYTGVPDRFTGSGSGTDFTFTISSVQAEDLAVYYCQQYYRTPRTFGGGTKLEIKR
notes: mouse hybridoma monoclonal antibody; also called Mer-M19
B2: antibody M6 (antibody, V domains shown)
VH: QVKLEESGPELKKPGETVKISCKASGYTFTNYGMNWVKQAPGKGLKWMGWINTYTGEPTYADDFKGRFVFSLETSASTAYLQINNLKNEDMATYFCARKSTVVSRYFDVWGAGTTVTVSS
VL: DIVLTQTHKFMSTSVGDRVSITCKASQDVGDAVTWCQQKPGQPPKLLIYWASTRHTGVPDRFTGSGSGTDFTLTINNVQSEDLADYFCQQYRSYPLTFGAGTKLELKR
notes: mouse hybridoma monoclonal antibody; also called Mer-M6

Experiments:
recombinant human MERTK = molecular target: T1, recombinant human MERTK (human, UniProt Q12866 26-499, limits assumed); test: biolayer interferometry
T1 construct: Analyte in solution in biolayer interferometry; also called hMer
T1 sequence: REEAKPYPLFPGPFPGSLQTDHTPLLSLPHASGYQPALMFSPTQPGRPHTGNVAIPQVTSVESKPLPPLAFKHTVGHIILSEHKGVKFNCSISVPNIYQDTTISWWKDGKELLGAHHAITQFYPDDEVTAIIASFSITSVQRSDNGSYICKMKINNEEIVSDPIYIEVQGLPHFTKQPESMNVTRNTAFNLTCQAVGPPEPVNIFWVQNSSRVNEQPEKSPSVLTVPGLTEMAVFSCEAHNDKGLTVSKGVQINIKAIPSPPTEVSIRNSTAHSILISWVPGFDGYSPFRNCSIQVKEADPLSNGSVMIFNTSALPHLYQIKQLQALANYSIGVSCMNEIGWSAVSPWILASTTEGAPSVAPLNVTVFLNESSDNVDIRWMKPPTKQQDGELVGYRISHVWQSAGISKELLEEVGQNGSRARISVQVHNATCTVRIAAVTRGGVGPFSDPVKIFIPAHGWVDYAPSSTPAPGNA

[1] = molecular target: T2, recombinant mouse MERTK (mouse) (UniProt Q60805); test: biolayer interferometry
T2 sequence (looked up): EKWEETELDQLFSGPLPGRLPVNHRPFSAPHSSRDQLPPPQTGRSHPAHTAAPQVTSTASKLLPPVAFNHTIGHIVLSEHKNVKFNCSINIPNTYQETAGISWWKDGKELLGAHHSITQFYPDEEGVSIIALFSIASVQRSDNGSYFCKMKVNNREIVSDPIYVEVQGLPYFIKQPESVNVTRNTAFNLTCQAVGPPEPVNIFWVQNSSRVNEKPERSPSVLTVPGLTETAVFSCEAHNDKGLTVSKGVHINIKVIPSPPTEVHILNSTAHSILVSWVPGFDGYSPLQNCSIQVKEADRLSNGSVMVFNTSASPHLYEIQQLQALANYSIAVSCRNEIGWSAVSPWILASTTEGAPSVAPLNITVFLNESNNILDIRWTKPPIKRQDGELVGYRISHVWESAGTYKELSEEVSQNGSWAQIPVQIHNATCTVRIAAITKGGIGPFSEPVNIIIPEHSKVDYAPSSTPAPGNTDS

| binding (recombinant human MERTK) | binding [1] | Binder |
| --- | --- | --- |
| binds | binds | B1 |
| binds | – | B2 |
